A short description of the assay: qHTS Assay for Modulators of Lamin A Splicing. The note with it: HeLa LMNA splicing GFP/RFP minigene ratio, 48 h. An outline of the steps:
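S3 HeLa cells stably expressing lamin A-EGFP splicing minigene plus DsRed2, 600 cells/well, 48 h compound exposure at 37C. Laser-scanning cytometry; analysed as GFP (500-530 nm)/RFP (575-640 nm) total intensity ratio; 0.5% DMSO vehicle.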

Setting [1] is: measured here: GFP splicing reporter channel.
The mark [2] stands for this setting: measured here: RFP viability control channel.

The structures appear in SMILES notation. Several values for one entry are separate records, joined by “and”; a condition that tells them apart may be missing. Equal values may be shown once. The list shows a part of the results. The main result of the screen is listed elsewhere. These columns were measured beside it and carry no call. Compounds called inactive in the main read-out are mostly missing here. The note in brackets gives the kind of curve behind each potency; many fits are weak.

For `CC(=O)c1ccc(N2CCN(C(=S)Nc3ccc(Oc4ccccc4)cc3)CC2)cc1`, under setting [1], the AC50 was 10 µM [falling, partial curve].
As for `COc1ccc(CN(C(=S)Nc2ccccc2)C2CC(=O)N(c3ccc(F)cc3)C2=O)cc1` (centres undefined), the AC50 reads like this: under setting [1], 31.6 µM [rising, single point]; under setting [2], 31.6 µM [rising, single point].
For the compound `CN(C)S(=O)(=O)c1ccc(NC(=O)CSc2ncnc3ccccc23)cc1`, the AC50 under setting [2] is 14.1 µM [rising, partial curve].
As for `CCCC(=O)O[C@]1(C(=O)CCl)[C@@H](C)C[C@H]2[C@@H]3CCC4=CC(=O)C=C[C@]4(C)[C@@]3(F)C(=O)C[C@@]21C`, the AC50 under setting [2] was 31.6 µM [rising, single point].
For the compound `C=C(C)C1CC=C(C)/C(=N/NC(=O)COc2cccc(C)c2)C1` (centres undefined), the AC50 is 28.2 µM [rising, single point] under setting [1] and 15.8 µM [rising, partial curve, poor fit] under setting [2].
As for `COc1ccc(CN2CCN(Cc3ccccc3)C(CCO)C2)cc1OC` (centres undefined), the AC50 by setting is: under setting [1], 31.6 µM [falling, single point]; under setting [2], 12.6 µM [falling, partial curve, poor fit].
As for `C=C(C)COc1ccc2c(C)c(CC(=O)OC)c(=O)oc2c1C`, the AC50 under setting [2] is 11.2 µM [rising, partial curve].
On to `C/C=C/C=C/C(=O)O`, for which the AC50 under setting [1] is 0.224 µM [falling, partial curve, poor fit].
Take `Cc1cc(O)c(C2=Nc3ccccc3SC(c3ccc(Cl)cc3)C2)c(=O)o1` (centres undefined): the AC50 under setting [2] was 14.1 µM [rising, partial curve].
Take `Cc1cc(=O)oc2cc(Oc3ccc([N+](=O)[O-])cc3[N+](=O)[O-])ccc12`: the AC50 runs as follows: under setting [1], 7.08 µM [falling, single point]; under setting [2], 14.1 µM [falling, single point].
Take `COc1cc2c(cc1OC)C(C)N(C(=O)c1cc3c(s1)-c1ccccc1OC3)CC2` (centres undefined): the AC50 is 7.94 µM [rising, partial curve] under setting [1] and 11.2 µM [rising, partial curve] under setting [2].
In the case of `CCOc1ccc2ccccc2c1C(=O)N[C@@H]1C(=O)N2[C@@H]1SC(C)(C)[C@@H]2C(=O)O`, the AC50 by setting is: under setting [1], 1 µM [falling, partial curve] and 3.16 µM [falling, partial curve]; under setting [2], 2.24 µM [falling, partial curve].
As for `c1ccc2c(c1)ncn2CCCOc1ccc2c(c1)CCC2`, the AC50 was 25.1 µM [rising, single point] under setting [1] and 31.6 µM [rising, single point] under setting [2].
Regarding `CC1CN(c2nc3ccccc3cc2-c2ccccc2)CC(C)O1` (centres undefined), under setting [2], the AC50 was 35.5 µM [rising, partial curve].
As for `COc1ccc(-c2nn(CC(=O)Nc3ccccc3F)c3c2cnc2ccc(F)cc23)cc1`, the AC50 is, setting by setting: under setting [1], 7.94 µM [falling, partial curve, poor fit]; under setting [2], 1.78 µM [falling, full curve, poor fit].
Take `COc1ccc(C2C(=O)N(C3CCCCC3)CC(=O)N2Cc2ccccc2Cl)cc1OC` (centres undefined): the AC50 was 0.02 µM [falling, full curve] under setting [1] and 0.0251 µM [falling, full curve] under setting [2].
For `Cc1csc(NC(=O)c2ccc3c(=O)n4c(nc3c2)CCCCC4)n1`, under setting [2], the AC50 is 20 µM [rising, partial curve, poor fit].
Turning to `CNC(=S)/N=C/NOCc1c(Cl)cccc1Cl`, under setting [1], the AC50 is 0.02 µM [rising, full curve, poor fit].
As to `Cn1c(=O)c2c(nc(SCCN3CCCCC3)n2C)n(C)c1=O`, under setting [2], the AC50 is 0.0562 µM [falling, full curve, poor fit].
In the case of `COc1ccc(CNc2nc(-c3cccc(NS(C)(=O)=O)c3)nc3ccccc23)c(OC)c1`, the AC50 by setting is: under setting [1], 15.8 µM [falling, partial curve, poor fit]; under setting [2], 14.1 µM [falling, single point].
On to `O=C(Nc1ccc(N2CCN(C(=O)c3ccc(Cl)cc3)CC2)cc1)c1ccc(Br)o1`, for which the AC50 under setting [2] was 31.6 µM [rising, single point].
Same read-out and setting: under `CCN(CC)CCNC(=O)c1cc(Cl)c(N)cc1OC` stands 7.08 nM [rising, full curve, poor fit] and 35.5 µM [falling, single point].
As to `O=S(=O)(c1cccs1)N1CCN(C/C=C/c2ccccc2)CC1`, the AC50 under setting [2] is 11.2 µM [rising, partial curve, poor fit].
With `CCOc1ccc(C2C(=O)N(C3CCCCCC3)CC(=O)N2CCc2ccccc2)cc1OC` (centres undefined), the AC50 is, setting by setting: under setting [1], 0.0562 µM [falling, full curve]; under setting [2], 0.01 µM [falling, full curve].
In the case of `Cc1ccccc1CNc1nnnn1C`, the AC50 under setting [2] is 1.26 µM [rising, full curve, poor fit].
On to `NCCCNCCCCNCCCN`, for which the AC50 under setting [1] is 0.0794 µM [rising, full curve, poor fit].
With `NS(=O)(=O)c1ccc(N/N=C2/CCCCC2C2CCCCC2)c([N+](=O)[O-])c1` (centres undefined), the AC50 runs as follows: under setting [1], 31.6 µM [falling, partial curve]; under setting [2], 25.1 µM [falling, partial curve].
For the compound `COc1cc(SC#N)ccc1N=Cc1c(C)[nH]n(-c2ccc(C)cc2)c1=O`, the AC50 was 35.5 µM [falling, single point] under setting [1] and 17.8 µM [falling, single point] under setting [2].
Turning to `Cc1ccc(-n2c(SCC(=O)NC3CCS(=O)(=O)C3)nc3ccccc3c2=O)cc1` (centres undefined), the AC50 under setting [1] was 14.1 µM [rising, partial curve].
`Cc1cc(O)cc2c(=O)c3ccccc3sc12`: the AC50 was 0.316 µM [falling, partial curve, poor fit] under setting [1] and 0.0891 µM [falling, full curve, poor fit] under setting [2].
On to `CCc1ccc(/C=C2\Oc3cc(OC(=O)N4CCOCC4)ccc3C2=O)cc1`, for which, under setting [2], the AC50 is 15.8 µM [rising, single point].
Regarding `CCOc1ccc(NC(=O)C(=O)NCCc2csc3nc(-c4ccccc4F)nn23)cc1`, the AC50 reads like this: under setting [1], 0.0708 µM [falling, full curve, poor fit]; under setting [2], 0.447 µM [falling, partial curve, poor fit].
Turning to `Cc1cc2nc(Sc3c([N+](=O)[O-])nc(C)n3Cc3ccccc3)[nH]c2cc1C`, the AC50 by setting is: under setting [1], 22.4 µM [falling, partial curve]; under setting [2], 35.5 µM [falling, single point].

These data come from PubChem BioAssay AID1487 (National Center for Advancing Translational Sciences (NCATS), 2009).
